The other results are listed elsewhere or left out. The main result of the screen is listed elsewhere. These columns were measured beside it and carry no call. The list favours compounds with an active or inconclusive main result. Potencies come from curve fits of mixed quality, noted in brackets.
Assay: qHTS Assay for Lipid Storage Modulators in Drosophila S3 Cells;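 for cell number change: cells counted by Cell Tracker Red CMTPX staining in the red channel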
Conditions: BODIPY lipid droplet fluorescence, 18-24 h; for cell number change: measured here: cell count max response, cells fed with added oleic acid
Method in brief: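 Laser-scanning cytometry quantifies lipid droplet accumulation (500–530 nm total intensity; droplet/cell object ratio) in oleic acid-fed (400 uM added) Drosophila S3 cells treated with a concentration series. 20 uM Triacsin C defined 100% inhibition.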

[1] = measured here: cell number channel AC50, cells fed with added oleic acid
[2] = measured here: lipid fluorescence (Fed channel) AC50, cells fed with added oleic acid

SMILES	AC50 [1]	AC50 [2]	cell number change
CCOc1ncccc1C(=O)Nc1cccc(-c2nnc3n2CCCCC3)c1	6.51 µM [falling, single point]	6.51 µM [falling, single point]	–
O=C(NC(NCc1ccccn1)(C(F)(F)F)C(F)(F)F)c1ccco1	–	4.61 µM [falling, single point]	4.82%
O=C(CN1C(=O)NC2(CCCCC2)C1=O)N1CCN(S(=O)(=O)c2cccc(F)c2)CC1	–	29.1 µM [rising, single point]	5.38%
Cc1cccc2sc(NNC(=O)c3cc(-c4cccs4)nc4ccccc34)nc12	–	3.26 µM [rising, single point]	0.43%
O=C(NCC1CCCCC1)c1cccc(-c2ccc(O)cc2)c1	–	0.146 µM [rising, full curve]	5.46%
COc1ccc(OCCCC(=O)OCC(=O)c2ccc3c(c2)NC(=O)CO3)cc1	0.651 µM [falling, single point]	–	1.47%
Cc1noc(C)c1S(=O)(=O)NCc1cccc(Cl)c1	–	–	-1.46%
Cc1ccccc1N(CC(=O)NC(C)(C)C)C(=O)c1ccc(-c2ccccc2)[nH]1	–	–	22.7%
CCc1ccc(NC(=O)CCn2c(=O)oc3ccccc32)cc1	–	2.59 µM [rising, partial curve, poor fit]	8.24%
CCN(C(=O)COC(=O)c1[nH]c(=O)[nH]c(=O)c1N)c1ccccc1	–	0.58 µM [falling, full curve]	-16.5%
CC(=O)NC(CC(=O)OCc1ccc([N+](=O)[O-])cc1)c1ccccc1 (configuration not stated)	–	0.58 µM [rising, single point]	15.8%
O=C(Nc1cccc(C(=O)O)c1)/C(=C\C=C\c1ccccc1)NC(=O)c1ccccc1	0.103 µM [falling, full curve, poor fit]	3.66 µM [falling, partial curve, poor fit]	17.3%
O=S(=O)(NCc1ccc2c(c1)OCO2)c1ccc2c(c1)oc1ccccc12	–	29.1 µM [rising, single point]	0.119%
COc1ccc(S(=O)(=O)Nc2ccc3c(c2)OCCO3)cc1Cl	–	–	-29.7%
Cc1cc(OC(C)C(=O)N/N=C/CC(C)c2ccccc2)ccc1Cl (configuration not stated)	2.91 µM [rising, single point]	6.51 µM [rising, single point]	16%
COC(=O)CCCCC1SCC2NC(=O)NC21O (configuration not stated)	–	–	23%
CCOCCn1c(=O)c2c(nc3n2CCCN3CCc2ccccc2)n(C)c1=O	–	29.1 µM [falling, single point]	1.47%
CC(=O)Nc1ccc(S(=O)(=O)N2CCN(c3cc(C)nc4ncnn34)CC2)cc1	–	29.1 µM [falling, single point]	-13.7%
CCCc1cc(-c2n[nH]c(=S)n2CC)c2ccccc2n1	16.4 µM [rising, single point]	29.1 µM [rising, single point]	50.8%
Cn1c(SCC(=O)Nc2ccc(Cl)cc2F)nnc1-c1ccco1	–	29.1 µM [falling, single point]	–
CCC(Oc1ccccc1)C(=O)Nc1ccccc1N1CCCC1 (configuration not stated)	–	14.1 µM [rising, partial curve, poor fit]	13.1%
CC(=O)c1csc(CS(=O)(=O)c2ccccn2)n1	–	0.92 µM [falling, full curve]	13.7%
CCCCNC(=O)N1CCN(C(=O)C2CCCO2)CC1 (configuration not stated)	29.1 µM [falling, single point]	0.259 µM [falling, full curve, poor fit]	-38.1%
Cc1c(C(=O)NCC2CCCO2)oc2ccc(S(=O)(=O)N3CCCCC3)cc12 (configuration not stated)	–	11.6 µM [rising, partial curve]	9.89%
O=C(Nc1cccc(S(=O)(=O)NC2=NCCCCC2)c1)c1cc(-c2ccc(Cl)cc2)nc2ccccc12	–	2.91 µM [rising, single point]	14.4%
O=C(N[C@@H](Cc1ccccc1)C(=O)N1CCC2(CC1)NCCc1[nH]cnc12)c1cccc(F)c1	–	0.116 µM [falling, single point]	–
Clc1ccc(Sc2ccccn2)cc1	25.9 µM [falling, single point]	–	-35.8%
CCN1C(=O)[C@H]2[C@@H](c3ccc(-c4ccc(OC)cc4)cc3)N[C@@](Cc3ccccc3)(C(=O)OC)[C@H]2C1=O	6.51 µM [falling, single point]	–	-22.4%
COc1ccc(NC(=S)NC(C)c2ccncc2)cc1OC (configuration not stated)	–	20 µM [rising, single point]	14.3%
Cc1ccc(-c2nc3ccccc3o2)cc1NC(=O)Cc1cccs1	–	6.51 µM [falling, single point]	–

Entries of single compounds, looked up by structure.
`CCC(Oc1ccccc1)C(=O)Nc1ccccc1N1CCCC1` (configuration not stated) as listed: AC50 [2]: 14.1 µM [rising, partial curve, poor fit]; cell number change: 13.1%
`CCN(C(=O)COC(=O)c1[nH]c(=O)[nH]c(=O)c1N)c1ccccc1` as listed: AC50 [2]: 0.58 µM [falling, full curve]; cell number change: -16.5%

— PubChem BioAssay AID2685 (National Center for Advancing Translational Sciences (NCATS), 2010)
